# The list shows a part of the results.
# B1: XTP3-B-MRH1 (Homo sapiens), Q96DZ1 (protein)
# chain: LLEPLFKQSSCSYRIESYWTYEVCHGKHIRQYHEEKETGQKINIHEYYLGNMLAKNLLFEKEREAEEKEKSNEIPTKNIEGQMTPYYPVGMGNGTPCSLKQNRPRSSTVMYICHPESKHEILSVAEVTTCEYEVVILTPLLCSHPKYRFRA
# Key:
# Assay in all cases: glycan array binding signal (z-score within array); higher = stronger binding
# Details in all cases: glycan notation: IUPAC condensed, linker removed
# [1] = biological target: Fuc(a1-2)[Gal(a1-3)]Gal(b1-4)GlcNAc(b1-2)Man(a1-3)[Fuc(a1-2)[Gal(a1-3)]Gal(b1-4)GlcNAc(b1-2)Man(a1-6)]Man(b1-4)GlcNAc(b1-4)GlcNAc
# Outline: (§1)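 Glycan array data came from 3228 arrays in the Consortium for Functional Glycomics database, and only arrays with an available protein sequence were kept. Glycan names were put into IUPAC-condensed notation, and columns mapping to the same glycan were averaged. The binding signal is a within-array Z-score, averaged across arrays of one protein sequence run at different concentrations or buffers and across linkers. A negative Z-score can be read as non-binding.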
# [2] = biological target: Fuc(a1-2)[Gal(a1-3)]Gal(b1-4)GlcNAc(b1-2)Man(a1-3)[Fuc(a1-2)[Gal(a1-3)]Gal(b1-4)GlcNAc(b1-2)Man(a1-6)]Man(b1-4)GlcNAc(b1-4)[Fuc(a1-6)]GlcNAc
# Outline: as §1
# [3] = biological target: Fuc(a1-2)[Gal(a1-3)]Gal(b1-4)GlcNAc(b1-3)GalNAc
# Outline: as §1
# [4] = biological target: Fuc(a1-2)[Gal(a1-3)]Gal(b1-4)GlcNAc(b1-3)[Fuc(a1-2)[Gal(a1-3)]Gal(b1-4)GlcNAc(b1-6)]GalNAc
# Outline: as §1
# [5] = biological target: Fuc(a1-2)[Gal(a1-3)]Gal(b1-4)GlcNAc(b1-6)GalNAc
# Outline: as §1
# [6] = biological target: Fuc(a1-2)[Gal(a1-3)]Gal(b1-4)[Fuc(a1-3)]Glc
# Outline: as §1
# [7] = biological target: Fuc(a1-2)[Gal(a1-3)]Gal(b1-4)[Fuc(a1-3)]GlcNAc
# Outline: as §1
# [8] = biological target: Fuc(a1-2)[Gal(a1-3)]Gal(b1-4)[Fuc(a1-3)]GlcNAc(b1-3)GalNAc
# Outline: as §1
# [9] = biological target: Fuc(a1-2)[Gal(a1-4)]Gal(b1-4)GlcNAc
# Outline: as §1
# [10] = biological target: Fuc(a1-2)[GalNAc(a1-3)]Gal
# Outline: as §1
# [11] = biological target: Fuc(a1-2)[GalNAc(a1-3)]Gal(b1-3)GalNAc(a1-3)[Fuc(a1-2)]Gal(b1-4)GlcNAc
# Outline: as §1
# [12] = biological target: Fuc(a1-2)[GalNAc(a1-3)]Gal(b1-3)GalNAc(b1-3)Gal(a1-4)Gal(b1-4)Glc
# Outline: as §1
# [13] = biological target: Fuc(a1-2)[GalNAc(a1-3)]Gal(b1-3)GlcNAc
# Outline: as §1
# [14] = biological target: Fuc(a1-2)[GalNAc(a1-3)]Gal(b1-3)GlcNAc(b1-2)Man(a1-3)[Fuc(a1-2)[GalNAc(a1-3)]Gal(b1-3)GlcNAc(b1-2)Man(a1-6)]Man(b1-4)GlcNAc(b1-4)GlcNAc
# Outline: as §1
# [15] = biological target: Fuc(a1-2)[GalNAc(a1-3)]Gal(b1-3)GlcNAc(b1-2)Man(a1-3)[Fuc(a1-2)[GalNAc(a1-3)]Gal(b1-3)GlcNAc(b1-2)Man(a1-6)]Man(b1-4)GlcNAc(b1-4)[Fuc(a1-6)]GlcNAc
# Outline: as §1
# [16] = biological target: Fuc(a1-2)[GalNAc(a1-3)]Gal(b1-3)GlcNAc(b1-3)GalNAc
# Outline: as §1
# [17] = biological target: Fuc(a1-2)[GalNAc(a1-3)]Gal(b1-3)GlcNAc(b1-6)GalNAc
# Outline: as §1
# [18] = biological target: Fuc(a1-2)[GalNAc(a1-3)]Gal(b1-4)Glc
# Outline: as §1
# [19] = biological target: Fuc(a1-2)[GalNAc(a1-3)]Gal(b1-4)GlcNAc
# Outline: as §1
# [20] = biological target: Fuc(a1-2)[GalNAc(a1-3)]Gal(b1-4)GlcNAc(b1-2)Man
# Outline: as §1
# [21] = biological target: Fuc(a1-2)[GalNAc(a1-3)]Gal(b1-4)GlcNAc(b1-2)Man(a1-3)[Fuc(a1-2)[GalNAc(a1-3)]Gal(b1-4)GlcNAc(b1-2)Man(a1-6)]Man(b1-4)GlcNAc(b1-4)GlcNAc
# Outline: as §1
# [22] = biological target: Fuc(a1-2)[GalNAc(a1-3)]Gal(b1-4)GlcNAc(b1-2)Man(a1-3)[Fuc(a1-2)[GalNAc(a1-3)]Gal(b1-4)GlcNAc(b1-2)Man(a1-6)]Man(b1-4)GlcNAc(b1-4)[Fuc(a1-6)]GlcNAc
# Outline: as §1
# [23] = biological target: Fuc(a1-2)[GalNAc(a1-3)]Gal(b1-4)GlcNAc(b1-3)Gal(b1-4)GlcNAc
# Outline: as §1
# [24] = biological target: Fuc(a1-2)[GalNAc(a1-3)]Gal(b1-4)GlcNAc(b1-3)Gal(b1-4)GlcNAc(b1-3)Gal(b1-4)GlcNAc
# Outline: as §1
# [25] = biological target: Fuc(a1-2)[GalNAc(a1-3)]Gal(b1-4)GlcNAc(b1-3)GalNAc
# Outline: as §1
# [26] = biological target: Fuc(a1-2)[GalNAc(a1-3)]Gal(b1-4)GlcNAc(b1-3)[Fuc(a1-2)[GalNAc(a1-3)]Gal(b1-4)GlcNAc(b1-6)]GalNAc
# Outline: as §1
# [27] = biological target: Fuc(a1-2)[GalNAc(a1-3)]Gal(b1-4)GlcNAc(b1-6)GalNAc
# Outline: as §1
# [28] = biological target: Fuc(a1-2)[GalNAc(a1-3)]Gal(b1-4)[Fuc(a1-3)]GlcNAc
# Outline: as §1
# [29] = biological target: Fuc(a1-2)[GalNAc(a1-3)]Gal(b1-4)[Fuc(a1-3)]GlcNAc(b1-3)GalNAc
# Outline: as §1
# [30] = biological target: Fuc(a1-2)[GalNAc(a1-4)]Gal(b1-4)GlcNAc
# Outline: as §1
# [31] = biological target: Fuc(a1-2)[GalNAc(b1-3)]Gal
# Outline: as §1
# [32] = biological target: Fuc(a1-3)GlcNAc
# Outline: as §1
# [33] = biological target: Fuc(a1-3)[Gal(b1-4)]Glc6S
# Outline: as §1
# [34] = biological target: Fuc(a1-3)[Gal(b1-4)]GlcNAc
# Outline: as §1
# [35] = biological target: Fuc(a1-3)[Gal(b1-4)]GlcNAc(b1-2)Man
# Outline: as §1
# [36] = biological target: Fuc(a1-3)[Gal(b1-4)]GlcNAc(b1-2)Man(a1-3)[Fuc(a1-3)[Gal(b1-4)]GlcNAc(b1-2)Man(a1-6)]Man(b1-4)GlcNAc(b1-4)GlcNAc
# Outline: as §1
# [37] = biological target: Fuc(a1-3)[Gal(b1-4)]GlcNAc(b1-2)Man(a1-3)[Fuc(a1-3)[Gal(b1-4)]GlcNAc(b1-2)Man(a1-6)]Man(b1-4)GlcNAc(b1-4)[Fuc(a1-6)]GlcNAc
# Outline: as §1
# [38] = biological target: Fuc(a1-3)[Gal(b1-4)]GlcNAc(b1-3)Gal(b1-3)[Fuc(a1-4)]GlcNAc
# Outline: as §1
# [39] = biological target: Fuc(a1-3)[Gal(b1-4)]GlcNAc(b1-3)Gal(b1-4)[Fuc(a1-3)]GlcNAc
# Outline: as §1
# [40] = biological target: Fuc(a1-3)[Gal(b1-4)]GlcNAc(b1-3)Gal(b1-4)[Fuc(a1-3)]GlcNAc(b1-3)Gal(b1-4)[Fuc(a1-3)]GlcNAc
# Outline: as §1
# [41] = biological target: Fuc(a1-3)[Gal(b1-4)]GlcNAc(b1-3)GalNAc
# Outline: as §1
# [42] = biological target: Fuc(a1-3)[Gal(b1-4)]GlcNAc(b1-6)GalNAc
# Outline: as §1
# [43] = biological target: Fuc(a1-3)[Gal(b1-4)]GlcNAc(b1-6)[Gal(b1-3)GlcNAc(b1-3)]Gal(b1-4)Glc
# Outline: as §1
# [44] = biological target: Fuc(a1-3)[Gal(b1-4)]GlcNAc6S
# Outline: as §1
# [45] = biological target: Fuc(a1-3)[Gal3S(b1-4)]Glc
# Outline: as §1
# [46] = biological target: Fuc(a1-3)[Gal3S(b1-4)]GlcNAc
# Outline: as §1
# [47] = biological target: Fuc(a1-3)[Gal3S(b1-4)]GlcNAc6S
# Outline: as §1
# [48] = biological target: Fuc(a1-3)[GalNAc(b1-4)]GlcNAc
# Outline: as §1
# [49] = biological target: Fuc(a1-3)[GalNAc(b1-4)]GlcNAc6S
# Outline: as §1
# [50] = biological target: Fuc(a1-4)GlcNAc
# Outline: as §1
# [51] = biological target: Fuc(b1-3)GlcNAc
# Outline: as §1
# [52] = biological target: Gal(a1-2)Gal
# Outline: as §1
# [53] = biological target: Gal(a1-3)Gal
# Outline: as §1
# [54] = biological target: Gal(a1-3)Gal(b1-3)GlcNAc
# Outline: as §1
# [55] = biological target: Gal(a1-3)Gal(b1-3)GlcNAc(b1-2)Man
# Outline: as §1
# [56] = biological target: Gal(a1-3)Gal(b1-3)GlcNAc(b1-2)Man(a1-3)[Gal(a1-3)Gal(b1-3)GlcNAc(b1-2)Man(a1-6)]Man(b1-4)GlcNAc(b1-4)GlcNAc
# Outline: as §1
# [57] = biological target: Gal(a1-3)Gal(b1-3)GlcNAc(b1-3)GalNAc
# Outline: as §1
# [58] = biological target: Gal(a1-3)Gal(b1-3)GlcNAc(b1-6)GalNAc
# Outline: as §1
# [59] = biological target: Gal(a1-3)Gal(b1-3)[Fuc(a1-4)]GlcNAc(b1-2)Man(a1-3)[Gal(a1-3)Gal(b1-3)[Fuc(a1-4)]GlcNAc(b1-2)Man(a1-6)]Man(b1-4)GlcNAc(b1-4)GlcNAc
# Outline: as §1
# [60] = biological target: Gal(a1-3)Gal(b1-4)Glc
# Outline: as §1
binder,measurement,setting,value
B1,glycan array binding signal (z-score),[1],1.12
same,glycan array binding signal (z-score),[2],-1.42
same,glycan array binding signal (z-score),[3],-0.369
same,glycan array binding signal (z-score),[4],0.358
same,glycan array binding signal (z-score),[5],-1.51
same,glycan array binding signal (z-score),[6],0.04
same,glycan array binding signal (z-score),[7],0.588
same,glycan array binding signal (z-score),[8],-1.99
same,glycan array binding signal (z-score),[9],-0.021
same,glycan array binding signal (z-score),[10],-0.414
same,glycan array binding signal (z-score),[11],-1.23
same,glycan array binding signal (z-score),[12],-0.49
same,glycan array binding signal (z-score),[13],0.263
same,glycan array binding signal (z-score),[14],-0.282
same,glycan array binding signal (z-score),[15],-0.42
same,glycan array binding signal (z-score),[16],-1.53
same,glycan array binding signal (z-score),[17],-0.635
same,glycan array binding signal (z-score),[18],-0.351
same,glycan array binding signal (z-score),[19],-0.97
same,glycan array binding signal (z-score),[20],-1.18
same,glycan array binding signal (z-score),[21],-0.141
same,glycan array binding signal (z-score),[22],0.076
same,glycan array binding signal (z-score),[23],0.081
same,glycan array binding signal (z-score),[24],-0.886
same,glycan array binding signal (z-score),[25],-1.07
same,glycan array binding signal (z-score),[26],-1.21
same,glycan array binding signal (z-score),[27],-0.199
same,glycan array binding signal (z-score),[28],-0.718
same,glycan array binding signal (z-score),[29],0.398
same,glycan array binding signal (z-score),[30],0.488
same,glycan array binding signal (z-score),[31],-1.01
same,glycan array binding signal (z-score),[32],-0.339
same,glycan array binding signal (z-score),[33],-0.886
same,glycan array binding signal (z-score),[34],0.765
same,glycan array binding signal (z-score),[35],-1.12
same,glycan array binding signal (z-score),[36],-1.59
same,glycan array binding signal (z-score),[37],-1.27
same,glycan array binding signal (z-score),[38],-0.511
same,glycan array binding signal (z-score),[39],4.25
same,glycan array binding signal (z-score),[40],0.112
same,glycan array binding signal (z-score),[41],-0.791
same,glycan array binding signal (z-score),[42],-0.152
same,glycan array binding signal (z-score),[43],-0.583
same,glycan array binding signal (z-score),[44],-0.311
same,glycan array binding signal (z-score),[45],1.58
same,glycan array binding signal (z-score),[46],-1.1
same,glycan array binding signal (z-score),[47],-0.786
same,glycan array binding signal (z-score),[48],-0.597
same,glycan array binding signal (z-score),[49],-0.658
same,glycan array binding signal (z-score),[50],-0.165
same,glycan array binding signal (z-score),[51],0.382
same,glycan array binding signal (z-score),[52],-0.427
same,glycan array binding signal (z-score),[53],-0.197
same,glycan array binding signal (z-score),[54],-0.328
same,glycan array binding signal (z-score),[55],-0.296
same,glycan array binding signal (z-score),[56],1.12
same,glycan array binding signal (z-score),[57],-0.13
same,glycan array binding signal (z-score),[58],-0.349
same,glycan array binding signal (z-score),[59],-0.237
same,glycan array binding signal (z-score),[60],-0.843

# Reprinted at random: 3 records from the list.
binder,measurement,setting,value
B1,glycan array binding signal (z-score),[60],-0.843
same,glycan array binding signal (z-score),[2],-1.42
same,glycan array binding signal (z-score),[21],-0.141

# From the supplement of paper PMC8728848
